Laboratory results taken from article PMC4497409.
Results are given in words; binding and its absence hold for the method and conditions named. Some binding calls cover weakened binding; strength is not graded here.

By UniProt entry, the sequences of proteins in these tests, tags left out. Where a name states a change or a piece, a line headed by the entry shows the natural chain unless it says otherwise. Chains listed by the source or under a name are the forms on record and can include a tag or linker. Residues count along the entry.
Biotinylated human Norrin R107E/R109E/R115L (Q00604, form named): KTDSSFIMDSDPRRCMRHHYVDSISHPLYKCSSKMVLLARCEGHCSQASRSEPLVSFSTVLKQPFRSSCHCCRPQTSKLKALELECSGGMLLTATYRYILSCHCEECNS
UniProt O75581, residues 20-631: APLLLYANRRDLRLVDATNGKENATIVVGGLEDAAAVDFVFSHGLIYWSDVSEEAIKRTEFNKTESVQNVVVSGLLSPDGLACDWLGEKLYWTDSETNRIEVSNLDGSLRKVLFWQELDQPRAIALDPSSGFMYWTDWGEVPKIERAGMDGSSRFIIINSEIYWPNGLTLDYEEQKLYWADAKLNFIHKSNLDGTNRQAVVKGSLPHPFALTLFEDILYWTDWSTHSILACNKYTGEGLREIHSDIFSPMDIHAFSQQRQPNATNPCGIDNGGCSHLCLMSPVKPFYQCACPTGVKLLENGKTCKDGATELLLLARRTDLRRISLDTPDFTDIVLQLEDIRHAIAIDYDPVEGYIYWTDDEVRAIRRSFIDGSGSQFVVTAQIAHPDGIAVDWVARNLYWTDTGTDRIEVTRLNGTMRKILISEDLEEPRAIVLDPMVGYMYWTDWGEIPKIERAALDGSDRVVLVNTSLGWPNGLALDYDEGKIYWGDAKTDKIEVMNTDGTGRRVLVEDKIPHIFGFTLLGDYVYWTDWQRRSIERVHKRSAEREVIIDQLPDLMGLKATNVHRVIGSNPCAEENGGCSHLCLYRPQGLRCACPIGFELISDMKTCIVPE

Biological target: Biotinylated human Norrin R107E/R109E/R115L (human) (UniProt Q00604)
Assay: SPR; Biacore T200, 25 C, 10 mM HEPES, pH 7.5, 0.15 M NaCl, 0.005% Tween20; biotinylated Norrin variants captured on streptavidin coupled to a CM5 chip; glycosylated FzCRD proteins or Lrp6 P1E1P2E2 as analytes; equilibrium binding, 1:1 Langmuir model; whether the biotinylated Norrin was purified before capture is not told

Question: For “Lrp6 ectodomain fragment comprising the first two tandem beta-propeller-epidermal growth factor-like domain pairs (Lrp6 P1E1P2E2), human (from UniProt O75581 20-631) (domain or fragment)”, which binding is on record?
Answer: binds
